Reference: article PMC8584032
Results are given in words; binding and its absence hold for the method and conditions named. For some of these results: Binding seen in cells or lysates may run through a third protein. Some results given as binding are weak or reduced against the parent protein; the word gives no strength. For some of these results: Tags and fused reporters may be left off the sequences shown.

Sequences of proteins named here, by UniProt entry; tags and fusion partners are left off.
UniProt Q9SXZ2: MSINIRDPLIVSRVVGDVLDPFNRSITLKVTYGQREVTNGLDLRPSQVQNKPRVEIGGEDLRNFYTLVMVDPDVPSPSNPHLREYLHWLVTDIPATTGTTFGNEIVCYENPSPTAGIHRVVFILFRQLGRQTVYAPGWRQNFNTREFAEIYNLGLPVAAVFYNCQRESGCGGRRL

How the values were obtained:
[1] = molecular target: T1, cLUC-AtVDAC1 (Arabidopsis thaliana) (UniProt Q9SRH5); experiment: split reporter; luciferase complementation imaging (LCI); FT-nLUC and cLUC-AtVDAC1 transiently infiltrated into N. benthamiana leaves; luminescence detected with ROPER CA2048B; three biological replicates
T1 sequence: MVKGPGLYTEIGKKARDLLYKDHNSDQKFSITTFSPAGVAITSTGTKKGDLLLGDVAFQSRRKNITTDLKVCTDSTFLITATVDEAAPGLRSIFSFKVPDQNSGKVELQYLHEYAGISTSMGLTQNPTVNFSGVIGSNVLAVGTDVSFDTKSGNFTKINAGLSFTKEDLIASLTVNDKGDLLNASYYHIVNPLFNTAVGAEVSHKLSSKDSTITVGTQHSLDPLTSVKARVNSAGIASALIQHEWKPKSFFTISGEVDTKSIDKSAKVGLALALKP

[2] = molecular target: T2, AtVDAC1, BiFC fusion in pDOE-03 (Arabidopsis thaliana) (UniProt Q9SRH5); experiment: split reporter; BiFC with mVenus fragments (pDOE-03 vector) in Arabidopsis protoplasts
T2 sequence: T1 sequence

[3] = molecular target: T3, AtVDAC1, bait of the yeast two-hybrid screening (Arabidopsis thaliana) (UniProt Q9SRH5); experiment: two-hybrid; yeast two-hybrid screening for interacting partners of AtVDAC1; library and vectors not described
T3 sequence: T1 sequence

[4] = molecular target: FLOWERING LOCUS T (FT), in pGBKT7 (Arabidopsis thaliana) (UniProt Q9SXZ2); experiment: two-hybrid; AtVDAC1 in pGADT7, FT in pGBKT7; Yeastmaker Yeast Transformation System 2 (Clontech); growth on SD/-Ade/-His/-Leu/-Trp; performed three times

For FT-nLUC (from UniProt Q9SXZ2 1-175), which binding [1] is on record?
Its binding is “binds”.

“FT, BiFC fusion in pDOE-03 (from UniProt Q9SXZ2 1-175)” was tested. Which binding [2] did it give?
The binding was “binds”.

For “FT, interactor found in the yeast two-hybrid screening (from UniProt Q9SXZ2 1-175)”, which binding [3] is on record?
The binding was “binds”.

B1: AtVDAC1 (Arabidopsis thaliana voltage-dependent anion channel 1), in pGADT7 (protein, UniProt Q9SRH5 1-276)
chain: T1 sequence
Which binding [4] does the source give for B1 here?
The binding was “binds”.
